Several values for one entry are separate records, joined by “and”; a condition that tells them apart may be missing. Identical values can stand only once. Counter-ions that a name gives are not always drawn. Some of the results follow. Single values are uncertain here, since repeats match poorly.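 HEK293T cells were given each compound shortly before transfection with a reporter in which red mCherry is followed by the SARS-CoV-2 frameshift element and then GFP in the −1 frame, so GFP appears only after frameshifting.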

This assay has as its system HEK293T. Description: percent viability (nuclei count) relative to control; higher = more viable cells. Conditions: 10 µM; 24 h.
Consider `O=C(N[C@H]1CCS[C@H]2CCC[C@@H](C(=O)O)N2C1=O)[C@@H](S)Cc1ccccc1` [omapatrilat], for which the percent viability is 68.7%.
Take `CCCCCCCCCCOc1cc2c(=O)c(C(=O)OCC)c[nH]c2cc1OCC`: the percent viability was determined as 72.3%.
In the case of `CCC(=O)c1ccc(O)cc1` [paroxypropione], the percent viability amounted to 292%.
To `CC(C)(Oc1ccc(C(=O)c2ccc(Cl)cc2)cc1)C(=O)O` belongs 155%; to `CCc1c(C)[nH]c2c1C(=O)C(CN1CCOCC1)CC2` (configuration not stated) [molindone], 249%; to `C[C@]12C=CC(=O)C=C1CC[C@@H]1[C@@H]2[C@@H](O)C[C@@]2(C)[C@H]1CC[C@]2(O)C(=O)COC(=O)CCC(=O)O`, 309%.
For `CC(C)Nc1cccnc1N1CCN(C(=O)c2cc3cc(NS(C)(=O)=O)ccc3[nH]2)CC1` [Delavirdine mesylate] the value was 222%.
Consider `Cc1cccc(CN2CCN(C(c3ccccc3)c3ccc(Cl)cc3)CC2)c1` (configuration not stated) [meclozine], for which the percent viability worked out at 117%.
Regarding `C[C@H](N[C@@H](CCc1ccccc1)C(=O)O)C(=O)N1C(=O)N(C)C[C@H]1C(=O)O` [imidaprilat], the percent viability is 95.1%.
To `CC(=O)O[C@]1(C(C)=O)CC[C@H]2[C@@H]3C=C(Cl)C4=CC(=O)[C@@H]5C[C@@H]5[C@]4(C)[C@H]3CC[C@@]21C` belongs 133%; to `CC(C(=O)O)c1ccc(CC2CCCC2=O)cc1` (configuration not stated), 323%.
To `CC(C)CN(C[C@@H](O)[C@H](Cc1ccccc1)NC(=O)O[C@H]1CO[C@H]2OCC[C@H]21)S(=O)(=O)c1ccc(N)cc1` [darunavir] belongs 213%; to `CN(C)CCC(c1ccc(Br)cc1)c1ccccn1` (configuration not stated) [brompheniramine], 74.9%.
Consider `Nc1ccc(C(=O)O)c(O)c1`, for which the percent viability was 281%.
To `O=C1OC(CN2CCOCC2)CN1/N=C/c1ccc([N+](=O)[O-])o1` (configuration not stated) belongs 265%; to `O=C(NCC(O)CO)c1c(I)c(C(=O)NCC(O)CO)c(I)c(N(CCO)C(=O)CO)c1I` (configuration not stated) [ioversol], 149%.
For `OC(CCN1CCCCC1)(c1ccccc1)C1CCCC1` (configuration not stated) [cycrimine] the value was 77.6%; for `O=C1O[C@H]([C@@H](O)CO)C(O)=C1O`, 236%.
As for `COc1c(-c2ccc3cc(NS(C)(=O)=O)ccc3c2)cc(-n2ccc(=O)[nH]c2=O)cc1C(C)(C)C` [Dasabuvir], the percent viability turned out to be 285%.
Regarding `CCN(CC)CCNC(=O)c1c(C)[nH]c(/C=C2\C(=O)Nc3ccc(F)cc32)c1C` [sunitinib], the percent viability was 191% and 224%.
For `CCC[C@H](N[C@@H](C)C(=O)N1[C@H](C(=O)O)C[C@@H]2CCCC[C@@H]21)C(=O)O` [perindoprilat] the value was 75.1%; for `Cc1cc(C(C)(C)C)cc(C)c1CC1=NCCN1` [xylometazoline], 143%; for `CC(=O)OC[C@H]1O[C@@H](n2ncc(=O)[nH]c2=O)[C@H](OC(C)=O)[C@@H]1OC(C)=O` [azaribine], 144%.
Turning to `Clc1ccc(C(c2ccccc2Cl)C(Cl)Cl)cc1` (configuration not stated) [mitotane], the percent viability turned out to be 159%.
For `COC(=O)[C@@H]1[C@H]2C[C@H]3c4[nH]c5ccccc5c4CCN3C[C@@H]2CC[C@@H]1O`, the percent viability was found to be 164%.
For `CCN(CC)CCS(=O)(=O)[C@@H]1CCN2C(=O)c3coc(n3)CC(=O)C[C@H](O)/C=C(C)/C=C/CNC(=O)/C=C/[C@@H](C)[C@@H](C(C)C)OC(=O)[C@@H]12` [dalfopristin] the value was 145%; for `O=C(N/N=C/c1ccc([N+](=O)[O-])o1)c1ccc(O)cc1`, 305%.

Source of the values: the supplement of paper PMC8256030.
